Taken from: PubChem BioAssay AID720505 (Drosophila RNAi Screening Center, 2013)

- Screen: 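Fly regulators or components of the CRAC channel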 (primary screen)
- Cells: Drosophila S2R+ cells
- Reagents: long dsRNA against Drosophila genes
- Treatment: thapsigargin (2 µM) in calcium-free buffer to empty internal stores, then 2 mM calcium added back
- Measurement: 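Stores emptied by 2 µM thapsigargin without calcium, then 2 mM calcium re-added; fluo-4 fluorescence followed by FLIPR in 384-well plates, per-well averaged endpoint, raw; two screen passes, some wells retested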
- Scale: calcium signal: higher = more calcium entry after store depletion
- Hit rule: 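Knock-downs counted as hits when calcium entry dropped relative to STIM1 positive and Rho1 negative controls present on each plate; roughly 1500 genes called, with reductions of differing size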
- Meaning of the calls: active = called as lowering calcium entry; inactive = not called
In all, the deposit lists about 20,000 reagents; shown is a random part of those with a known target gene and a result. In the full data, about 2,100 (10%) are marked active. 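Raw plate signals without normalisation; calls rest on control-based scores that were not deposited; replicate 2 separates called from uncalled poorly.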 No sequences are given here. Not given: the amount of reagent, the time to read-out.

no.	predicted target	DRSC id	calcium signal, replicate 1	calcium signal, replicate 2	activity call
1	Obp56b (Odorant-binding protein 56b)	DRSC06551	180	145	inactive
2	CG13982	DRSC02314	72.7	111	active
3	CG3611	DRSC04395	132	160	inactive
4	CG15282	DRSC22620	118	216	inactive
5	CG15282	DRSC23090	92.4	132	inactive
6	CG30050	DRSC05342	104	101	inactive
7	CG12826	DRSC06175	127	177	inactive
8	js (jiangshi)	DRSC15004	141	157	inactive
9	CG34054	DRSC05277	98.1	153	inactive
10	Pde1c (Phosphodiesterase 1c)	DRSC02421	215	199	inactive
11	Pde1c (Phosphodiesterase 1c)	DRSC02422	200	168	inactive
12	Pde1c (Phosphodiesterase 1c)	DRSC02423	212	141	inactive
13	Pde1c (Phosphodiesterase 1c)	DRSC02424	217	170	inactive
14	Pde1c (Phosphodiesterase 1c)	DRSC02425	92.5	110	inactive
15	Pde1c (Phosphodiesterase 1c)	DRSC02426	93.9	122	inactive
16	Cypl (Cyclophilin-like)	DRSC08362	99.8	61.8	inactive
17	robl37BC	DRSC02472	154	107	inactive
18	CG17571	DRSC01768	83.7	4968	inactive
19	CG17571	DRSC03755	206	122	inactive
20	Sin3A	DRSC07552	139	120	inactive
21	CG14893	DRSC15015	114	116	inactive
22	CG7601	DRSC14131	81.2	102	inactive

Continued; the last 2 above are carried over.
no.	predicted target	DRSC id	calcium signal, replicate 1	calcium signal, replicate 2	activity call
21	CG14893	DRSC15015	114	116	inactive
22	CG7601	DRSC14131	81.2	102	inactive
23	dila (dilatory)	DRSC06607	107	138	inactive
24	Gbp1 (Growth-blocking peptide 1)	DRSC06592	126	146	inactive
25	Cpr50Ca (Cuticular protein 50Ca)	DRSC05454	98.3	124	inactive
26	Cpr50Ca (Cuticular protein 50Ca)	DRSC06372	120	220	inactive
27	Cpr50Ca (Cuticular protein 50Ca)	DRSC06375	105	184	inactive
28	CG14561	DRSC11722	102	113	inactive
29	CG34375	DRSC14684	233	172	inactive
30	CG34375	DRSC14685	240	166	inactive
31	Eno (Enolase)	DRSC00750	176	118	inactive
32	l(3)73Ah (lethal (3) 73Ah)	DRSC11359	83	168	inactive
33	CG10307	DRSC04057	89.5	93.9	inactive
34	CheB42b (Chemosensory protein B 42b)	DRSC22878	73.4	145	inactive
